In EPA's CvTdb concentration-time database:
Several values for one entry are separate records, joined by “and”; a condition that tells them apart may be missing. Identical values can stand only once. This continues a long series; more values of the same kind are listed elsewhere.

Assays:
Assay in all cases: concentration in plasma after dosing
[1] = tested on: Mouse; conditions: 5 h; dosed: 2-Hydroxy-4-methoxybenzophenone; 250 mg/kg; oral; Female; B6C3F1
[2] = tested on: Mouse; conditions: 4 h; dosed: 2-Hydroxy-4-methoxybenzophenone; 50 mg/kg; iv; Male; B6C3F1
[3] = tested on: Mouse; conditions: 5 min; dosed: 2-Hydroxy-4-methoxybenzophenone; 50 mg/kg; iv; Male; B6C3F1
[4] = tested on: Rat; conditions: 16 h; dosed: 2-Hydroxy-4-methoxybenzophenone; 500 mg/kg; oral; Male; F344
[5] = tested on: Mouse; conditions: 6 h; dosed: 2-Hydroxy-4-methoxybenzophenone; 500 mg/kg; oral; Female; B6C3F1
[6] = tested on: Mouse; conditions: 6 h; dosed: 2-Hydroxy-4-methoxybenzophenone; 250 mg/kg; oral; Male; B6C3F1
[7] = tested on: Rat; conditions: dosed: 2-Hydroxy-4-methoxybenzophenone, 100 mg/kg, oral, Male, F344
[8] = tested on: Mouse; conditions: 1.5 h; dosed: 2-Hydroxy-4-methoxybenzophenone; 50 mg/kg; iv; Male; B6C3F1
[9] = tested on: Mouse; conditions: 8 h; dosed: 2-Hydroxy-4-methoxybenzophenone; 50 mg/kg; iv; Male; B6C3F1
[10] = tested on: Rat; conditions: 5 min; dosed: 2-Hydroxy-4-methoxybenzophenone; 8 mg/kg; iv; Female; F344
[11] = tested on: Mouse; conditions: 1.5 h; dosed: 2-Hydroxy-4-methoxybenzophenone; 250 mg/kg; oral; Female; B6C3F1
[12] = tested on: Rat; conditions: 6 h; dosed: 2-Hydroxy-4-methoxybenzophenone; 500 mg/kg; oral; Female; F344
[13] = tested on: Mouse; conditions: 5 min; dosed: 2-Hydroxy-4-methoxybenzophenone; 500 mg/kg; oral; Female; B6C3F1
[14] = tested on: Mouse; conditions: 0.5 h; dosed: 2-Hydroxy-4-methoxybenzophenone; 250 mg/kg; oral; Female; B6C3F1
[15] = tested on: Mouse; conditions: 5 min; dosed: 2-Hydroxy-4-methoxybenzophenone; 50 mg/kg; iv; Female; B6C3F1
[16] = tested on: Rat; conditions: 2 h; dosed: 2-Hydroxy-4-methoxybenzophenone; 500 mg/kg; oral; Male; F344
[17] = tested on: Mouse; conditions: 4 h; dosed: 2-Hydroxy-4-methoxybenzophenone; 250 mg/kg; oral; Female; B6C3F1
[18] = tested on: Mouse; conditions: 4 h; dosed: 2-Hydroxy-4-methoxybenzophenone; 500 mg/kg; oral; Male; B6C3F1
[19] = tested on: Mouse; conditions: 4 h; dosed: 2-Hydroxy-4-methoxybenzophenone; 50 mg/kg; iv; Female; B6C3F1
[20] = tested on: Mouse; conditions: 1.5 h; dosed: 2-Hydroxy-4-methoxybenzophenone; 250 mg/kg; oral; Male; B6C3F1
[21] = tested on: Mouse; conditions: 6 h; dosed: 2-Hydroxy-4-methoxybenzophenone; 500 mg/kg; oral; Male; B6C3F1
[22] = tested on: Mouse; conditions: dosed: 2-Hydroxy-4-methoxybenzophenone, 100 mg/kg, oral, Male, B6C3F1
[23] = tested on: Mouse; conditions: 5 min; dosed: 2-Hydroxy-4-methoxybenzophenone; 50 mg/kg; iv; Male; B6C3F1; remark: listed apart in the source
[24] = tested on: Rat; conditions: dosed: 2-Hydroxy-4-methoxybenzophenone, 250 mg/kg, oral, Male, F344
[25] = tested on: Rat; conditions: 6 h; dosed: 2-Hydroxy-4-methoxybenzophenone; 500 mg/kg; oral; Female; F344; remark: listed apart in the source
[26] = tested on: Rat; conditions: dosed: 2-Hydroxy-4-methoxybenzophenone, 100 mg/kg, oral, Female, F344
[27] = tested on: Mouse; conditions: 12 h; dosed: 2-Hydroxy-4-methoxybenzophenone; 500 mg/kg; oral; Female; B6C3F1
[28] = tested on: Mouse; conditions: 4 h; dosed: 2-Hydroxy-4-methoxybenzophenone; 250 mg/kg; oral; Female; B6C3F1; remark: listed apart in the source
[29] = tested on: Mouse; conditions: 12 h; dosed: 2-Hydroxy-4-methoxybenzophenone; 50 mg/kg; iv; Male; B6C3F1
[30] = tested on: Rat; conditions: 2.5 min; dosed: 2-Hydroxy-4-methoxybenzophenone; 250 mg/kg; oral; Male; F344
[31] = tested on: Mouse; conditions: 7 h; dosed: 2-Hydroxy-4-methoxybenzophenone; 250 mg/kg; oral; Female; B6C3F1
[32] = tested on: Rat; conditions: dosed: Perfluorohexanoic Acid, 40 mg/kg, Male, F344
[33] = tested on: Rat; conditions: dosed: Perfluorohexanoic Acid, 160 mg/kg, oral, Female, Harlan Sprague Dawley
[34] = tested on: Rat; conditions: 0.5 h; dosed: Perfluorohexanoic Acid; 80 mg/kg; oral; Female; Harlan Sprague Dawley
[35] = tested on: Rat; conditions: 12 h; dosed: Perfluorohexanoic Acid; 80 mg/kg; oral; Male; Harlan Sprague Dawley
[36] = tested on: Rat; conditions: dosed: Perfluorohexanoic Acid, 80 mg/kg, oral, Female, Harlan Sprague Dawley

## O=C(c1ccccc1)c1ccc(O)cc1O [2,4-Dihydroxybenzophenone]
[1]
  concentration in plasma: 34.2 ng/mL
[2]
  concentration in plasma: 172 ng/mL
[3]
  concentration in plasma: 3760 ng/mL
[4]
  concentration in plasma: 47.4 ng/mL
[5]
  concentration in plasma: 254 ng/mL
[6]
  concentration in plasma: 222 ng/mL
[7]; 1 h
  concentration in plasma: 158 ng/mL
[7]; 6 h
  concentration in plasma: 44.8 ng/mL
[8]
  concentration in plasma: 104 ng/mL
[9]
  concentration in plasma: 141 ng/mL
[10]
  concentration in plasma: 124 ng/mL
[11]
  concentration in plasma: 266 ng/mL
[12]
  concentration in plasma: 220 ng/mL
[13]
  concentration in plasma: 1280 ng/mL
[14]
  concentration in plasma: 869 ng/mL
[15]
  concentration in plasma: 2490 ng/mL
[16]
  concentration in plasma: 416 ng/mL
[17]
  concentration in plasma: 53.6 ng/mL

## COc1ccc(C(=O)c2ccccc2)c(O)c1 [2-Hydroxy-4-methoxybenzophenone]
[18]
  concentration in plasma: 88.8 ng/mL
[19]
  concentration in plasma: 129 ng/mL
[20]
  concentration in plasma: 57.4 ng/mL
[21]
  concentration in plasma: 67.7 ng/mL
[22]; 5 min
  concentration in plasma: 49.9 ng/mL
[22]; 0.5 h
  concentration in plasma: 58.7 ng/mL
[22]; 0.75 h
  concentration in plasma: 74.3 ng/mL
[22]; 1 h
  concentration in plasma: 28.8 ng/mL
[22]; 1.5 h
  concentration in plasma: 31.6 ng/mL
[22]; 4 h
  concentration in plasma: 16.6 ng/mL
[22]; 5 h
  concentration in plasma: 16.2 ng/mL
[22]; 6 h
  concentration in plasma: 13.4 ng/mL
[23]
  concentration in plasma: 28300 ng/mL
[24]; 0.5 h
  concentration in plasma: 527 ng/mL
[24]; 10 h
  concentration in plasma: 13 ng/mL
[25]
  concentration in plasma: 74.9 ng/mL
[26]; 5 min
  concentration in plasma: 7.37 ng/mL
[26]; 2 h
  concentration in plasma: 14.3 ng/mL
[27]
  concentration in plasma: 8.94 ng/mL and 13.1 ng/mL
[28]
  concentration in plasma: 35.6 ng/mL
[29]
  concentration in plasma: 10.7 ng/mL
[30]
  concentration in plasma: 23.6 ng/mL
[31]
  concentration in plasma: 12 ng/mL

## O=C(O)C(F)(F)C(F)(F)C(F)(F)C(F)(F)C(F)(F)F [Perfluorohexanoic Acid]
[32]; 0.25 h
  concentration in plasma: 209000 ng/mL
[32]; 6 h
  concentration in plasma: 2450 ng/mL
[33]; 0.5 h
  concentration in plasma: 281000 ng/mL
[33]; 9 h
  concentration in plasma: 915 ng/mL
[34]
  concentration in plasma: 67500 ng/mL
[35]
  concentration in plasma: 3220 ng/mL
[36]; 5 min
  concentration in plasma: 48600 ng/mL
[36]; 9 h
  concentration in plasma: 238 ng/mL
